Experimental findings from patent US20250369124A1, “IMIDAZOLINE-SUGAR CONJUGATE COMPOSITIONS AND METHODS FOR INHIBITING CORROSION” (Ecolab USA Inc., priority 2024, published 2025) are described below.

SMILES strings stand for the structures. Where “and” joins values, the source holds several entries; their conditions need not be identical. Equal entries are not always repeated.

This data set can be described thus: Wheel box test (NACE publication ID182), corrosion of carbon steel coupons in CO2-saturated brine/oil. Particulars: for MPY / Weight Loss Mg.: 80° C., 24 hours, CO2 saturated, 80% ASTM Seawater brine / 20% LVT-200. From the text:
To determine the efficacy of the compositions as corrosion inhibitors, a wheel box test was used. It is a testing methodology from NACE publication ID182. The method is used to assess the degree of protection afforded to a metal surface that is in contact with water laden with carbon dioxide (C02). The wheel box test is a test that is often used in the field for comparative corrosion inhibitor performance tests. The standard test conditions used in the performance test are in Table 1.
A continuous wheel box test procedure was used to compare the performance of the corrosion inhibitor formulations of the invention in mitigating the corrosion of carbon steel in solutions saturated with carbon dioxide. Into a set of bottles containing the desired brine and oil mixtures, Table 1, clean and pre-weighed coupons were immersed. The solution was purged with carbon dioxide, after which the solutions were dosed with the various concentrations of the formulations. After purging the headspace with carbon dioxide, the bottles were immediately capped to prevent aerial exposure.
Blanks, comprising bottles of untreated mixtures, were used to determine the baseline corrosion rate under the test conditions. The bottles were placed on a rotating wheel under incubation at 80° C. for a period of 24 hours. Following the completion of the incubation, the bottles were retrieved and left to cooled to room temperature. The coupons were removed from the test solutions, cleaned, dried, sandblasted and re-weighed. By comparing the mass loss of the coupons immersed in treated solutions versus the mass loss for coupons placed in untreated solutions, the corrosion rate and protection efficiency were calculated.

Setting [1] is: 500 ppm inhibitor, listed as Formulation 2, acetate salt.
Setting [2] is: 1000 ppm inhibitor, listed as Formulation 2, acetate salt.
[3] abbreviates: 2000 ppm inhibitor, listed as Formulation 2, acetate salt.
Setting [4] is: 5000 ppm inhibitor, listed as Formulation 2, acetate salt.
Where [5] appears, read: 10000 ppm inhibitor, listed as Formulation 2, acetate salt.
[6] abbreviates: 20000 ppm inhibitor, listed as Formulation 2, acetate salt.
Setting [7] is: 50000 ppm inhibitor, listed as Formulation 2, acetate salt.
The mark [8] stands for this setting: 500 ppm inhibitor, listed as Formulation 1, acetate salt.
The mark [9] stands for this setting: 1000 ppm inhibitor, listed as Formulation 1, acetate salt.
The mark [10] stands for this setting: 2000 ppm inhibitor, listed as Formulation 1, acetate salt.
The mark [11] stands for this setting: 5000 ppm inhibitor, listed as Formulation 1, acetate salt.
Setting [12] is: 10000 ppm inhibitor, listed as Formulation 1, acetate salt.
The mark [13] stands for this setting: 20000 ppm inhibitor, listed as Formulation 1, acetate salt.
Setting [14] is: 50000 ppm inhibitor, listed as Formulation 1, acetate salt.

`CC(=O)[O-].CCCCCCCC/C=C\CCCCCCCC1=[N+](CC(O)c2ccccc2)CCN1CCNC1OC(CO)C(O)C(O)C1O` (centres unmarked) [Formula 2, (Z)-2-(heptadec-8-en-1-yl)-3-(2-hydroxy-2-phenylethyl)-1-(2-((3,4,5-trihydroxy-6-(hydroxymethyl)tetrahydro-2H-pyran-2-yl)amino)ethyl)-4,5-dihydro-1H-imidazol-3-ium acetate salt]: the “improvement of % Protection over Comparative Formulation” value reads like this: (5 ppm of Corrosion Inhibitor) “(100% improvement)”; (10 ppm of Corrosion Inhibitor) “(50% improvement)”; (25 ppm of Corrosion Inhibitor) “(36% improvement)”; (50 ppm of Corrosion Inhibitor) “(33 improvement) %”. Moreover, the MPY reads like this: under setting [1], 3.48 MPY and 3.17 MPY; under setting [2], 3.23 MPY and 3.36 MPY; under setting [3], 3.54 MPY and 3.11 MPY; under setting [4], 3.23 MPY and 2.99 MPY; under setting [5], 2.68 MPY and 2.32 MPY; under setting [6], 2.32 MPY and 2.44 MPY. In addition, the MPY under setting [7] is 2.50 MPY and 2.44 MPY. The “Weight Loss Mg.” value was 5.7 Mg. and 5.2 Mg under setting [1]; 5.3 Mg. and 5.5 Mg under setting [2]; 5.8 Mg. and 5.1 Mg under setting [3]; 5.3 Mg. and 4.9 Mg under setting [4]; 4.4 Mg. and 3.8 Mg under setting [5]; 3.8 Mg. and 4.0 Mg under setting [6]. Further, the “Weight Loss Mg.” value under setting [7] is 4.1 Mg. and 4.0 Mg.

Turning to `CCCCCCCC/C=C\CCCCCCCC1=NCCN1CCN` [Comparative Formulation, Acetate, reference compound], the MPY is 4.7 MPY and 4.27 MPY (500 ppm inhibitor, Acetate); 4.39 MPY and 4.03 MPY (1000 ppm inhibitor, Acetate); 4.21 MPY and 4.33 MPY (2000 ppm inhibitor, Acetate); 4.64 MPY and 4.27 MPY (5000 ppm inhibitor, Acetate); 4.45 MPY and 4.21 MPY (10000 ppm inhibitor, Acetate); 4.51 MPY and 4.39 MPY (20000 ppm inhibitor, Acetate). The MPY (50000 ppm inhibitor, Acetate) was 4.21 MPY and 4.09 MPY. Also, the “Weight Loss Mg.” value (500 ppm inhibitor, Acetate) is 7.7 Mg. and 7 Mg; the “Weight Loss Mg.” value (1000 ppm inhibitor, Acetate) is 7.2 Mg. and 6.6 Mg; the “Weight Loss Mg.” value (2000 ppm inhibitor, Acetate) is 6.9 Mg. and 7.1 Mg; the “Weight Loss Mg.” value (5000 ppm inhibitor, Acetate) is 7.6 Mg. and 7 Mg; the “Weight Loss Mg.” value (10000 ppm inhibitor, Acetate) is 7.3 Mg. and 6.9 Mg; the “Weight Loss Mg.” value (20000 ppm inhibitor, Acetate) was 7.4 Mg. and 7.2 Mg. Where the note is “50000 ppm inhibitor, Acetate”, the “Weight Loss Mg.” value is 6.9 Mg. and 6.7 Mg.

For the compound `CC(=O)O.CCCCCCCC/C=C\CCCCCCCC1=NCCN1CCNC1OC(CO)C(O)C(O)C1O` (centres unmarked) [Formula 1, (Z)-2-((2-(2-(heptadec-8-en-1-yl)-4,5-dihydro-1H-imidazol-1-yl)ethyl)amino)-6-(hydroxymethyl)tetrahydro-2H-pyran-3,4,5-triol acetate salt], the “improvement of % Protection over Comparative Formulation” value is recorded as “(54% improvement)” (5 ppm of Corrosion Inhibitor), “(33% improvement)” (10 ppm of Corrosion Inhibitor), “(29% improvement)” (25 ppm of Corrosion Inhibitor) and “(15% improvement)” (50 ppm of Corrosion Inhibitor). Moreover, the MPY under setting [8] was 2.07 MPY and 2.01 MPY; the MPY under setting [9] was 2.68 MPY and 2.56 MPY; the MPY under setting [10] is 2.81 MPY and 2.26 MPY; the MPY under setting [11] was 2.44 MPY and 2.38 MPY; the MPY under setting [12] is 2.2 MPY and 2.26 MPY; the MPY under setting [13] was 1.77 MPY and 1.83 MPY. In addition, under setting [14], the MPY was 1.89 MPY and 2.44 MPY. Also, the “Weight Loss Mg.” value reads like this: under setting [8], 3.4 Mg. and 3.3 Mg; under setting [9], 4.4 Mg. and 4.2 Mg; under setting [10], 4.6 Mg. and 3.7 Mg; under setting [11], 4 Mg. and 3.9 Mg; under setting [12], 3.6 Mg. and 3.7 Mg; under setting [13], 2.9 Mg. and 3 Mg. Moreover, the “Weight Loss Mg.” value under setting [14] is 3.1 Mg. and 4 Mg.
